Source: PMC11589570, “Critical assessment of LC3/GABARAP ligands used for degrader development and ligandability of LC3/GABARAP binding pockets” (Nature Communications, 2024)
Values joined by “and” are separate entries in the source; they are usually repeats but may differ in a detail not shown here. Equal entries are not always repeated. Further values from the same series stand in other lists.

Tested on: RPE1 cells
Experiment: Cell growth assay (IncuCyte confluence over 72 h)
Type: cell-based
Conditions: listed as 8F20
Procedure, shortened: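 Phase confluence (% area covered by cells) imaged every 2 h for 72 h after compound addition; cells in DMEM/10% FBS, seeded 24 h before treatment. Controls were 0.1% DMSO, 250 nM Torin1 and 200 ng/mL Bafilomycin (final). Each point averages three wells.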

For Cc1ccc(C(=O)N(CCCN)[C@@H](c2nc3cc(Cl)ccc3c(=O)n2Cc2ccccc2)C(C)C)cc1 [compound 3, (R)-N-(3-aminopropyl)-N-(1-(3-benzyl-7-chloro-4-oxo-3,4-dihydroquinazolin-2-yl)−2-methylpropyl)−4-methylbenzamide], the RPE1 cell growth (100 nM, 0 h) was 19 and 11 and 16, the RPE1 cell growth (100 nM, 2 h) was 21 and 12 and 18 and the RPE1 cell growth (100 nM, 4 h) was 20 and 11 and 19. For the same compound, the RPE1 cell growth (100 nM, 6 h) was 19 and 10 and 16, the RPE1 cell growth (100 nM, 8 h) was 18 and 9 and 16 and the RPE1 cell growth (100 nM, 10 h) was 17 and 9 and 15. For the same compound, the RPE1 cell growth (100 nM, 12 h) was 16 and 8 and 14, the RPE1 cell growth (100 nM, 14 h) was 15 and 8 and 14 and the RPE1 cell growth (100 nM, 16 h) was 14 and 7 and 13. For the same compound, the RPE1 cell growth (500 nM, 0 h) was 22 and 18 and 20, the RPE1 cell growth (500 nM, 2 h) was 25 and 18 and 22 and the RPE1 cell growth (500 nM, 4 h) was 24 and 17 and 23. For the same compound, the RPE1 cell growth (500 nM, 6 h) was 23 and 16 and 21, the RPE1 cell growth (500 nM, 8 h) was 22 and 14 and 21 and the RPE1 cell growth (500 nM, 10 h) was 20 and 14. For the same compound, the RPE1 cell growth (500 nM, 12 h) was 20 and 13 and 18, the RPE1 cell growth (500 nM, 14 h) was 18 and 11 and 17 and the RPE1 cell growth (500 nM, 16 h) was 18 and 11 and 16. For the same compound, the RPE1 cell growth (500 nM, 18 h) was 17 and 10 and 14, the RPE1 cell growth (500 nM, 20 h) was 15 and 9 and 14 and the RPE1 cell growth (500 nM, 22 h) was 17 and 9 and 13. For the same compound, the RPE1 cell growth (500 nM, 26 h) was 18 and 12 and 13, the RPE1 cell growth (500 nM, 28 h) was 19 and 11 and 14 and the RPE1 cell growth (500 nM, 30 h) was 13 and 12 and 14. For the same compound, the RPE1 cell growth (500 nM, 32 h) was 22 and 12 and 15, the RPE1 cell growth (500 nM, 60 h) was 37 and 19 and 30 and the RPE1 cell growth (500 nM, 62 h) was 37 and 19 and 32. The RPE1 cell growth (500 nM, 64 h) was 39 and 20 and 32, the RPE1 cell growth (500 nM, 68 h) was 38 and 19 and 35 and the RPE1 cell growth (1 uM, 0 h) was 18 and 17 and 19. For the same compound, the RPE1 cell growth (1 uM, 2 h) was 20 and 21 and 19, the RPE1 cell growth (1 uM, 4 h) was 21 and 19 and the RPE1 cell growth (1 uM, 6 h) was 21 and 20 and 17. For the same compound, the RPE1 cell growth (1 uM, 8 h) was 20 and 21 and 16, the RPE1 cell growth (1 uM, 10 h) was 18 and 19 and 14 and the RPE1 cell growth (1 uM, 12 h) was 17 and 18 and 12. The RPE1 cell growth (1 uM, 14 h) was 16 and 17 and 12, the RPE1 cell growth (1 uM, 16 h) was 15 and 17 and 11 and the RPE1 cell growth (1 uM, 18 h) was 14 and 17 and 11. For the same compound, the RPE1 cell growth (1 uM, 20 h) was 14 and 15 and 10, the RPE1 cell growth (1 uM, 22 h) was 13 and 19 and 11 and the RPE1 cell growth (1 uM, 24 h) was 13 and 21 and 11. For the same compound, the RPE1 cell growth (1 uM, 26 h) was 13 and 19 and 10, the RPE1 cell growth (1 uM, 28 h) was 13 and 22 and 11 and the RPE1 cell growth (1 uM, 30 h) was 13 and 21 and 12. For the same compound, the RPE1 cell growth (1 uM, 32 h) was 14 and 24 and 13, the RPE1 cell growth (1 uM, 58 h) was 36 and 21 and the RPE1 cell growth (1 uM, 60 h) was 32 and 33 and 21. For the same compound, the RPE1 cell growth (1 uM, 62 h) was 31 and 35 and 21, the RPE1 cell growth (1 uM, 64 h) was 32 and 38 and 22 and the RPE1 cell growth (1 uM, 66 h) was 33 and 37 and 21. The RPE1 cell growth (1 uM, 68 h) was 33 and 36 and 22, the RPE1 cell growth (1 uM, 70 h) was 34 and 40 and 20 and the RPE1 cell growth (1 uM, 72 h) was 37 and 41 and 21. The RPE1 cell growth (3 uM, 0 h) was 15 and 18 and 17, the RPE1 cell growth (3 uM, 2 h) was 22 and 20 and the RPE1 cell growth (3 uM, 4 h) was 21 and 19 and 22. For the same compound, the RPE1 cell growth (3 uM, 6 h) was 22 and 17, the RPE1 cell growth (3 uM, 8 h) was 22 and 16 and 20 and the RPE1 cell growth (3 uM, 10 h) was 21 and 15 and 20. For the same compound, the RPE1 cell growth (3 uM, 12 h) was 21 and 14 and 19, the RPE1 cell growth (3 uM, 14 h) was 21 and 14 and 17 and the RPE1 cell growth (3 uM, 16 h) was 19 and 13 and 17. For the same compound, the RPE1 cell growth (3 uM, 18 h) was 20 and 11 and 16, the RPE1 cell growth (3 uM, 20 h) was 18 and 11 and 16 and the RPE1 cell growth (3 uM, 22 h) was 20 and 12 and 15. The RPE1 cell growth (3 uM, 24 h) was 21 and 12 and 14, the RPE1 cell growth (3 uM, 26 h) was 21 and 13 and 15 and the RPE1 cell growth (3 uM, 28 h) was 23 and 14. The RPE1 cell growth (3 uM, 30 h) was 24 and 15 and 14, the RPE1 cell growth (3 uM, 32 h) was 25 and 15 and 16 and the RPE1 cell growth (3 uM, 58 h) was 35 and 19 and 27. The RPE1 cell growth (3 uM, 60 h) was 36 and 20 and 26, the RPE1 cell growth (3 uM, 62 h) was 37 and 19 and 27 and the RPE1 cell growth (3 uM, 64 h) was 37 and 20 and 27. The RPE1 cell growth (3 uM, 66 h) was 39 and 22 and 27, the RPE1 cell growth (3 uM, 68 h) was 38 and 21 and 28 and the RPE1 cell growth (3 uM, 70 h) was 40 and 20 and 28. For the same compound, the RPE1 cell growth (5 uM, 0 h) was 14 and 17, the RPE1 cell growth (5 uM, 2 h) was 21 and 19 and the RPE1 cell growth (5 uM, 4 h) was 19 and 20. For the same compound, the RPE1 cell growth (5 uM, 6 h) was 23 and 17 and 20, the RPE1 cell growth (5 uM, 8 h) was 23 and 18 and 20 and the RPE1 cell growth (5 uM, 10 h) was 22 and 16 and 19. The RPE1 cell growth (5 uM, 12 h) was 24 and 16 and 19, the RPE1 cell growth (5 uM, 14 h) was 26 and 14 and 19 and the RPE1 cell growth (5 uM, 16 h) was 26 and 14 and 19. For the same compound, the RPE1 cell growth (5 uM, 20 h) was 28 and 14 and 19, the RPE1 cell growth (10 uM, 0 h) was 14 and 18 and the RPE1 cell growth (10 uM, 2 h) was 21 and 17 and 20. The RPE1 cell growth (10 uM, 4 h) was 22 and 16, the RPE1 cell growth (10 uM, 6 h) was 22 and 16 and the RPE1 cell growth (10 uM, 8 h) was 24 and 18 and 22. For the same compound, the RPE1 cell growth (10 uM, 10 h) was 23 and 17, the RPE1 cell growth (10 uM, 12 h) was 29 and 19 and 23 and the RPE1 cell growth (10 uM, 14 h) was 31 and 16 and 23. The RPE1 cell growth (10 uM, 16 h) was 32 and 17 and 23 and the RPE1 cell growth (10 uM, 20 h) was 32 and 17 and 26.
